According to PubChem BioAssay AID2685 (National Center for Advancing Translational Sciences (NCATS), 2010):
The list shows a part of the results. These are further read-outs of the screen, such as a control signal, another cell line or another target. No call is given for them. The list favours compounds with an active or inconclusive main result. The note in brackets gives the kind of curve behind each potency; many fits are weak.

Assay: qHTS Assay for Lipid Storage Modulators in Drosophila S3 Cells;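 on cell number change: cells counted by Cell Tracker Red CMTPX staining in the red channel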
Conditions: BODIPY lipid droplet fluorescence, 18-24 h; for cell number change: measured here: cell count max response, cells fed with added oleic acid
In short: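 Drosophila S3 cells got compounds at several concentrations plus oleic acid (400 uM solution). Laser-scanning cytometry with 488 nm excitation read lipid droplets at 500-530 nm and cells at 575-640 nm. Percent activity was relative to 20 uM Triacsin C.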

[1] = measured here: lipid fluorescence (Fed channel) AC50, cells fed with added oleic acid
[2] = measured here: cell number channel AC50, cells fed with added oleic acid

| SMILES | cell number change [%] | AC50 [1] | AC50 [2] |
| --- | --- | --- | --- |
| CCNC(=O)CN1C(=O)NC2(CCOc3ccccc32)C1=O (stereo unspecified) | 16.8 | 6.51 µM [falling, single point] | – |
| CC(C)(C)C(=O)/C(=C/c1cccc([N+](=O)[O-])c1)n1cncn1 | -83.8 | 20.6 µM [falling, single point] | 20.6 µM [falling, single point] |
| CCOC(=O)c1c(C)[nH]c(C(=O)COC(=O)COc2ccc(OC)cc2)c1C | 9.5 | 20.6 µM [rising, partial curve] | – |
| Cc1nc2ccccc2c(=O)n1-c1cccc(NC(=O)c2cccs2)c1 | -17.4 | – | – |
| CC1C/C(=C\c2cccnc2)C(=O)/C(=C/c2cccnc2)C1 (stereo unspecified) | – | 5.8 µM [falling, full curve] | – |
| CCc1ccc(NC(=O)CN(c2ccc(OC)cc2)S(=O)(=O)c2c(C)nn(C)c2C)cc1 | 1.47 | – | – |
| O=[n+]1cc(-c2cccc3ccccc23)n([O-])c2c1CCC2 | -104 | 23.1 µM [falling, single point] | 23.1 µM [falling, single point] |
| COc1cccc(Cl)c1NC(=O)N1CCc2c([nH]c3ccccc23)C1C(F)(F)F (stereo unspecified) | 13.1 | 5.17 µM [rising, partial curve] | 0.00517 µM [rising, full curve, poor fit] |
| CC(=O)Nc1cccc(OCC(=O)Nc2ccc(F)cc2)c1 | 1.75 | 29.1 µM [rising, single point] | – |
| O=C(NCCN1CCOCC1)c1ccc([N+](=O)[O-])cc1[N+](=O)[O-] | 8.39 | 7.31 µM [rising, full curve, poor fit] | – |
| Cc1ccc(S(=O)(=O)/C(C#N)=C/c2c(N3CCOCC3)nc3ccccn3c2=O)cc1 | – | 0.58 µM [rising, single point] | – |
| COc1cc([N+](=O)[O-])ccc1NC(=O)CCCOc1cccc(C)c1 | 19.8 | – | – |
| CCSc1nnc2n(-c3ccc(OC)cc3)c(=O)c3c4c(sc3n12)CCCC4 | 74.1 | 3.66 µM [rising, partial curve] | 3.66 µM [rising, partial curve] |
| c1ccc(Nc2nc(NCC3CCCO3)c3ccccc3n2)cc1 (stereo unspecified) | -58.5 | 32.6 µM [falling, partial curve, poor fit] | 32.6 µM [falling, single point] |
| Cc1cccc(NC(=O)N2CCCC2C(=O)NCc2cccs2)c1 (stereo unspecified) | 33.5 | – | 18.4 µM [rising, partial curve, poor fit] |
| Cn1c(/C=N/O)nc2ccccc21 | 0.534 | – | – |

Reformatted: two of the compounds above.
COc1cc([N+](=O)[O-])ccc1NC(=O)CCCOc1cccc(C)c1
  cell number change [%]: 19.8
CCSc1nnc2n(-c3ccc(OC)cc3)c(=O)c3c4c(sc3n12)CCCC4
  cell number change [%]: 74.1
  AC50 [1]: 3.66 µM [rising, partial curve]
  AC50 [2]: 3.66 µM [rising, partial curve]
